Experimental data: PMC11870507
These are yes or no findings as the source states them, for the method shown. Binding seen in cells or lysates may run through a third protein. These calls come from enrichment with a bait or labelling near it, and not all partners need be listed.

Amino acid sequences for entries named in this document (tags omitted). A change or cut given only in a name is not applied to a line headed by its entry.
UniProt K4DBH0: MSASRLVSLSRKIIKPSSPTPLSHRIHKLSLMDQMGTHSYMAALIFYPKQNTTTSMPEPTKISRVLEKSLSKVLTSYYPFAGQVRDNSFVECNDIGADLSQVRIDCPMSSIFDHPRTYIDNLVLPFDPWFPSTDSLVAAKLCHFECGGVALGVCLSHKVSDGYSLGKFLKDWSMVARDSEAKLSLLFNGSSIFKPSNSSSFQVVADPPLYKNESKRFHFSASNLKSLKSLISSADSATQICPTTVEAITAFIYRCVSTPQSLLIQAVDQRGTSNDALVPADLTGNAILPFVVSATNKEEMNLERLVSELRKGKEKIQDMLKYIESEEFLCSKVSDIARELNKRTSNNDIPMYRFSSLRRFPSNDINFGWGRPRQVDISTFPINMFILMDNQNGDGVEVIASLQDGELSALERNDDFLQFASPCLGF
UniProt K4D9Y4: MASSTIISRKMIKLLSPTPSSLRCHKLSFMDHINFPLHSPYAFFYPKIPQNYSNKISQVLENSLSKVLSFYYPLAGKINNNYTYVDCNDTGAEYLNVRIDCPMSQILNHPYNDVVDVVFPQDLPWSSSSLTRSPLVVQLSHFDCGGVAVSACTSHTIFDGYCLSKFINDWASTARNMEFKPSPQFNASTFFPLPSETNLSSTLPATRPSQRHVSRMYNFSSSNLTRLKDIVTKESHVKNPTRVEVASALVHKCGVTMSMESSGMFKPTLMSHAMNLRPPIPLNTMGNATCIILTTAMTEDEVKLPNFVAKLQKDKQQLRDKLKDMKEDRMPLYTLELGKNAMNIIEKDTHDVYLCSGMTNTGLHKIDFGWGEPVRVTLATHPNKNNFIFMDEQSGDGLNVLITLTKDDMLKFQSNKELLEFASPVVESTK
UniProt A0A3Q7EQZ9: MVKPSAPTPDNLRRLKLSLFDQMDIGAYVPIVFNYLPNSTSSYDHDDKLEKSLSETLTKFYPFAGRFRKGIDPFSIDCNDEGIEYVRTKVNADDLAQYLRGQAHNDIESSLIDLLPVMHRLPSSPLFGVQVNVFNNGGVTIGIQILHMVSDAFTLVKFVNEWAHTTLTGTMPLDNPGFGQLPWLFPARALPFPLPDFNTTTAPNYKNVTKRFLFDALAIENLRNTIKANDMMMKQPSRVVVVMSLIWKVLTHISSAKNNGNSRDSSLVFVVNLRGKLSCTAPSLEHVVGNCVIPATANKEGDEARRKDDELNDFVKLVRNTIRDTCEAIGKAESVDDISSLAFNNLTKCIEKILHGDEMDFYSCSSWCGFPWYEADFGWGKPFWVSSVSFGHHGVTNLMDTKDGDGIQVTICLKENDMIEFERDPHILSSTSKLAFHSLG
UniProt A0A0U3JNE4: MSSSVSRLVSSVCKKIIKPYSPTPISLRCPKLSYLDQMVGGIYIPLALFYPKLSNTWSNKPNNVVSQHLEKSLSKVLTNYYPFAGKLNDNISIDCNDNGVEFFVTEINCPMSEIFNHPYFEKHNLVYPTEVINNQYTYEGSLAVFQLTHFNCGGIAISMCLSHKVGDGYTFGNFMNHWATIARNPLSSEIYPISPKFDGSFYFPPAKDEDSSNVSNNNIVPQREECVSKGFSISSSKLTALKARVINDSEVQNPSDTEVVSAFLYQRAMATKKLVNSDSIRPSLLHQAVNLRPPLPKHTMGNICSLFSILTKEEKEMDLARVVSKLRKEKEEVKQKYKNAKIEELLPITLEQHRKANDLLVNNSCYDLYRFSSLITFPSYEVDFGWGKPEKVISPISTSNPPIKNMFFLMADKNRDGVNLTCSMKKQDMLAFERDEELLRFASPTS

Key:
[1] = molecular target: HA-tagged SlASAT1 (Solanum lycopersicum (tomato)) (UniProt K4DBH0); test: co-IP + affinity purification with mass spectrometry; HA-SlASAT1, Flag-SlASAT4 and untagged SlASAT2 and SlASAT3 co-expressed in N. benthamiana leaves; IP with anti-HA or anti-Flag magnetic beads; confirmed by western blot, then proteomics (DIA-PASEF)
[2] = molecular target: Flag-tagged SlASAT4 (Solanum lycopersicum (tomato)); test: as above
[3] = molecular target: Flag-tagged SlASAT4 (Solanum lycopersicum (tomato)); test: affinity purification with mass spectrometry; proteomics of all proteins co-immunoprecipitated with the pull-down of Flag-SlASAT4 from N. benthamiana leaves expressing SlASAT1-4, high detergent stringency, empty vector HA/Flag as control, peptides mapped to the N. benthamiana proteome

| binding [1] | binding [2] | binding [3] | Molecule |
| --- | --- | --- | --- |
| binds | binds | – | untagged SlASAT3 (from UniProt K4D9Y4) (enzyme) |
| binds | – | – | Flag-tagged SlASAT4 (from UniProt A0A3Q7EQZ9) (enzyme) |
| – | – | binds | NbRanBP1-1a (protein, UniProt A0A387K1P8 1-216) MASSGEPELEKKEVEEEVVEENPSAAADDEDTGAQVAPIVKLQEVSVSTGEENEDVLLDLKSKLYRFDKEGNAWKERGAGTVKLLKHKETGKVRLVMRQSKTLKICANHLVLPTMSIQEHAGNEKSCVWHAADFADGELKEETFCIRFASIENCKSFKEKVEEIAESQQTKSEESEGAVAAATELIEKLSVESKDKEDKPEGKEAPAKTEENVEKN |

Second part, the molecule before the results:

| Molecule | binding [1] | binding [2] | binding [3] |
| --- | --- | --- | --- |
| untagged SlASAT2 (from UniProt A0A0U3JNE4) (enzyme) | binds | binds | – |
| HA-tagged SlASAT1 (from UniProt K4DBH0) (enzyme) | – | binds | – |
